{"source": "patent US20130225508A1", "about": "“PEPTIDE CAPABLE OF BINDING TO IMMUNOGLOBULIN” (priority 2010, published 2013)", "tested_on": "adjuvant-induced arthritis", "test": "Adjuvant arthritis rat model", "assay_type": "in vivo, Lewis/CrlCrlj rats", "parameters": "key to Redness scores (left hind-limb) / Redness scores (right hind-limb): 0 = no redness, 4 = severe redness; key to Scores of swelling in the instep (right hind-limb) / Scores of swelling in the instep (left hind-limb): 0 = no swelling, 4 = severe swelling; key to Scores of swelling in knuckle joints (left hind-limb) / Scores of swelling in knuckle joints (right hind-limb): 0 = no swelling, 4 = swelling of all the digits", "excerpt": "Male Lewis/CrlCrlj (SPF) rats were used to investigate the arthritis suppressing effect of a peptide of the present invention on adjuvant-induced arthritis. Forty-five rats were purchased from Charles River Laboratories Japan, Inc., and fed normal chow and allowed to acclimate for 7 days before used (the range of body weights was from 193.3 to 218.3 g at the beginning of use).\nIn an agate motor, dead tubercle bacilli (Mycobacterium butyricum; Lot No. 0260570, Difco) were pulverized. Then, liquid paraffin was added in small amounts to spread the pulverized bacilli well, so as to allow them to be emulsified at 1.0 mg/mL. The resultant emulsion was used after verification to ensure that the pulverized bacilli had been allowed to be finely emulsified, using an NM MICRONIZER (Nippon Seiki Co., Ltd.).\nA right hind-limb of the respective rats was exposed, and 100 μL of the emulsion was intradermally injected once into a footpad of the right hind-limb using a 25G-needle attached syringe, to cause arthritis (day 0).\nEach of the groups was comprised of 5 animals.\nArthritis was evaluated only for the hind-limbs, based on the criteria described below:\nScore 0: no swelling Score 1: swelling of not more than two digits Score 2: swelling of three digits Score 3: swelling of four digits Score 4: swelling of all the digits\nScore 0: no swelling Score 1: mild swelling Score 2: modest swelling Score 3: rather severe swelling Score 4: severe swelling\nScore 0: no redness Score 1: mild redness Score 2: modest redness Score 3: rather severe redness Score 4: severe redness (iii) Measurement of Foot Volumes of Left And Right Hind-Limbs\nMeasurement was performed using a plethysmometer (UNICOM TK105). The increasing rate foot volume (percentage of paw swelling, paw swelling %) was calculated by the following formula:\nPercent paw swelling (%)=[(Vt−Vo)/Vo]×100\nIn addition, in these examinations, the percent change of edema relative to day 10 post-adjuvant was calculated, in order to assess the effect of treatment with the test substances.\nData are expressed by mean±standard error. Since the uniformity of variance was not verified in testing between the negative and the positive control groups, testing for significant difference was performed by Aspin-Welch t-test. Since the uniformity of variance was not verified in testing for significant differences of the respective test-substance administered groups relative to the positive control group, assessment was performed by Dunnett's multiple comparison test after Kruskal-Wallis testing, using non-parametric procedures. Differences were considered to be statistically significant at p values of less than 0.05.", "key": {"[1]": {"settings": "Day 0 post-adjuvant, 10 mg/kg intraperitoneal from day 10"}, "[2]": {"settings": "Day 0 post-adjuvant, 100 mg/kg intraperitoneal from day 10"}, "[3]": {"settings": "Day 3 post-adjuvant, 10 mg/kg intraperitoneal from day 10"}, "[4]": {"settings": "Day 3 post-adjuvant, 100 mg/kg intraperitoneal from day 10"}, "[5]": {"settings": "Day 7 post-adjuvant, 10 mg/kg intraperitoneal from day 10"}, "[6]": {"settings": "Day 7 post-adjuvant, 100 mg/kg intraperitoneal from day 10"}, "[7]": {"settings": "Day 10 post-adjuvant, 10 mg/kg intraperitoneal from day 10"}, "[8]": {"settings": "Day 10 post-adjuvant, 100 mg/kg intraperitoneal from day 10"}}, "note": "Part of at least one peptide drawing is inferred or uncertain, most often the ends. Non-standard residues stand in square brackets, D forms with d. Residues, ends and D or L forms follow the SMILES beside them."}
{"smiles": "CC(C)C[C@@H](NC(=O)CNC(=O)[C@H]1CCCN1)C(=O)N[C@H](CCC(=O)O)C(=O)N[C@H](CCCCN)C(=O)N[C@H](Cc1ccccc1)C(=O)O", "note": "[Test substance VII-2, dPGdLdEdKdF] (H-[dP]G[dL][dE][dK][dF]-OH; N-terminus and C-terminus assumed)", "values": [{"measurement": "Percent increase in foot volume relative to pre-adjuvant (left hind-limb)", "setting": "[1]", "value": "0.00 ± 0.0", "unit": "%"}, {"measurement": "Percent increase in foot volume relative to pre-adjuvant (right hind-limb)", "setting": "[1]", "value": "0.00 ± 0.0", "unit": "%"}, {"measurement": "Redness scores (left hind-limb)", "setting": "[1]", "value": "0.0 ± 0.0"}, {"measurement": "Redness scores (right hind-limb)", "setting": "[1]", "value": "0.0 ± 0.0"}, {"measurement": "Scores of swelling in knuckle joints (left hind-limb)", "setting": "[1]", "value": "0.0 ± 0.0"}, {"measurement": "Scores of swelling in knuckle joints (right hind-limb)", "setting": "[1]", "value": "0.0 ± 0.0"}, {"measurement": "Scores of swelling in the instep (left hind-limb)", "setting": "[1]", "value": "0.0 ± 0.0"}, {"measurement": "Scores of swelling in the instep (right hind-limb)", "setting": "[1]", "value": "0.0 ± 0.0"}, {"measurement": "Total scores (left hind-limb)", "setting": "[1]", "value": "0.0 ± 0.0"}, {"measurement": "Total scores (right hind-limb)", "setting": "[1]", "value": "0.0 ± 0.0"}, {"measurement": "Percent increase in foot volume relative to pre-adjuvant (left hind-limb)", "setting": "[2]", "value": "0.00 ± 0.0", "unit": "%"}, {"measurement": "Percent increase in foot volume relative to pre-adjuvant (right hind-limb)", "setting": "[2]", "value": "0.00 ± 0.0", "unit": "%"}, {"measurement": "Redness scores (left hind-limb)", "setting": "[2]", "value": "0.0 ± 0.0"}, {"measurement": "Redness scores (right hind-limb)", "setting": "[2]", "value": "0.0 ± 0.0"}, {"measurement": "Scores of swelling in knuckle joints (left hind-limb)", "setting": "[2]", "value": "0.0 ± 0.0"}, {"measurement": "Scores of swelling in knuckle joints (right hind-limb)", "setting": "[2]", "value": "0.0 ± 0.0"}, {"measurement": "Scores of swelling in the instep (left hind-limb)", "setting": "[2]", "value": "0.0 ± 0.0"}, {"measurement": "Total scores (left hind-limb)", "setting": "[2]", "value": "0.0 ± 0.0"}, {"measurement": "Total scores (right hind-limb)", "setting": "[2]", "value": "0.0 ± 0.0"}, {"measurement": "Percent increase in foot volume relative to pre-adjuvant (left hind-limb)", "setting": "[3]", "value": "12.89 ± 0.3", "unit": "%"}, {"measurement": "Percent increase in foot volume relative to pre-adjuvant (right hind-limb)", "setting": "[3]", "value": "12.10 ± 0.3", "unit": "%"}, {"measurement": "Redness scores (left hind-limb)", "setting": "[3]", "value": "0.0 ± 0.0"}, {"measurement": "Redness scores (right hind-limb)", "setting": "[3]", "value": "0.0 ± 0.0"}, {"measurement": "Scores of swelling in knuckle joints (left hind-limb)", "setting": "[3]", "value": "0.0 ± 0.0"}, {"measurement": "Scores of swelling in knuckle joints (right hind-limb)", "setting": "[3]", "value": "0.0 ± 0.0"}, {"measurement": "Scores of swelling in the instep (left hind-limb)", "setting": "[3]", "value": "0.0 ± 0.0"}, {"measurement": "Scores of swelling in the instep (right hind-limb)", "setting": "[3]", "value": "0.0 ± 0.0"}, {"measurement": "Total scores (left hind-limb)", "setting": "[3]", "value": "0.0 ± 0.0"}, {"measurement": "Total scores (right hind-limb)", "setting": "[3]", "value": "0.0 ± 0.0"}, {"measurement": "Percent increase in foot volume relative to pre-adjuvant (left hind-limb)", "setting": "[4]", "value": "13.60 ± 0.5", "unit": "%"}, {"measurement": "Percent increase in foot volume relative to pre-adjuvant (right hind-limb)", "setting": "[4]", "value": "12.96 ± 0.3", "unit": "%"}, {"measurement": "Redness scores (left hind-limb)", "setting": "[4]", "value": "0.0 ± 0.0"}, {"measurement": "Redness scores (right hind-limb)", "setting": "[4]", "value": "0.0 ± 0.0"}, {"measurement": "Scores of swelling in knuckle joints (left hind-limb)", "setting": "[4]", "value": "0.0 ± 0.0"}, {"measurement": "Scores of swelling in knuckle joints (right hind-limb)", "setting": "[4]", "value": "0.0 ± 0.0"}, {"measurement": "Scores of swelling in the instep (left hind-limb)", "setting": "[4]", "value": "0.0 ± 0.0"}, {"measurement": "Total scores (left hind-limb)", "setting": "[4]", "value": "0.0 ± 0.0"}, {"measurement": "Total scores (right hind-limb)", "setting": "[4]", "value": "0.0 ± 0.0"}, {"measurement": "Percent increase in foot volume relative to pre-adjuvant (left hind-limb)", "setting": "[5]", "value": "15.37 ± 1.3", "unit": "%"}, {"measurement": "Percent increase in foot volume relative to pre-adjuvant (right hind-limb)", "setting": "[5]", "value": "28.10 ± 3.4", "unit": "%"}, {"measurement": "Redness scores (left hind-limb)", "setting": "[5]", "value": "0.0 ± 0.0"}, {"measurement": "Redness scores (right hind-limb)", "setting": "[5]", "value": "0.2 ± 0.2"}, {"measurement": "Scores of swelling in knuckle joints (left hind-limb)", "setting": "[5]", "value": "0.4 ± 0.2"}, {"measurement": "Scores of swelling in knuckle joints (right hind-limb)", "setting": "[5]", "value": "0.4 ± 0.2"}, {"measurement": "Scores of swelling in the instep (left hind-limb)", "setting": "[5]", "value": "0.2 ± 0.2"}, {"measurement": "Scores of swelling in the instep (right hind-limb)", "setting": "[5]", "value": "0.4 ± 0.2"}, {"measurement": "Total scores (left hind-limb)", "setting": "[5]", "value": "0.6 ± 0.4"}, {"measurement": "Total scores (right hind-limb)", "setting": "[5]", "value": "1.0 ± 0.5"}, {"measurement": "Percent increase in foot volume relative to pre-adjuvant (left hind-limb)", "setting": "[6]", "value": "13.58 ± 2.3", "unit": "%"}, {"measurement": "Percent increase in foot volume relative to pre-adjuvant (right hind-limb)", "setting": "[6]", "value": "28.71 ± 2.3", "unit": "%"}, {"measurement": "Redness scores (left hind-limb)", "setting": "[6]", "value": "0.0 ± 0.0"}, {"measurement": "Redness scores (right hind-limb)", "setting": "[6]", "value": "0.8 ± 0.2"}, {"measurement": "Scores of swelling in knuckle joints (left hind-limb)", "setting": "[6]", "value": "0.6 ± 0.2"}, {"measurement": "Scores of swelling in knuckle joints (right hind-limb)", "setting": "[6]", "value": "0.4 ± 0.2"}, {"measurement": "Scores of swelling in the instep (left hind-limb)", "setting": "[6]", "value": "0.4 ± 0.2"}, {"measurement": "Total scores (left hind-limb)", "setting": "[6]", "value": "1.0 ± 0.4"}, {"measurement": "Total scores (right hind-limb)", "setting": "[6]", "value": "2.0 ± 0.5"}, {"measurement": "Percent increase in foot volume relative to pre-adjuvant (left hind-limb)", "setting": "[7]", "value": "20.66 ± 1.7", "unit": "%"}, {"measurement": "Percent increase in foot volume relative to pre-adjuvant (right hind-limb)", "setting": "[7]", "value": "40.36 ± 6.9", "unit": "%"}, {"measurement": "Redness scores (left hind-limb)", "setting": "[7]", "value": "0.2 ± 0.2"}, {"measurement": "Redness scores (right hind-limb)", "setting": "[7]", "value": "1.0 ± 0.0"}, {"measurement": "Scores of swelling in knuckle joints (left hind-limb)", "setting": "[7]", "value": "0.8 ± 0.2"}, {"measurement": "Scores of swelling in knuckle joints (right hind-limb)", "setting": "[7]", "value": "1.0 ± 0.0"}, {"measurement": "Scores of swelling in the instep (left hind-limb)", "setting": "[7]", "value": "0.2 ± 0.2"}, {"measurement": "Scores of swelling in the instep (right hind-limb)", "setting": "[7]", "value": "0.8 ± 0.2"}, {"measurement": "Total scores (left hind-limb)", "setting": "[7]", "value": "1.2 ± 0.2"}, {"measurement": "Total scores (right hind-limb)", "setting": "[7]", "value": "2.8 ± 0.2"}, {"measurement": "Percent increase in foot volume relative to pre-adjuvant (left hind-limb)", "setting": "[8]", "value": "21.20 ± 3.3", "unit": "%"}, {"measurement": "Percent increase in foot volume relative to pre-adjuvant (right hind-limb)", "setting": "[8]", "value": "32.68 ± 1.8", "unit": "%"}, {"measurement": "Redness scores (left hind-limb)", "setting": "[8]", "value": "0.0 ± 0.0"}, {"measurement": "Redness scores (right hind-limb)", "setting": "[8]", "value": "1.0 ± 0.0"}, {"measurement": "Scores of swelling in knuckle joints (left hind-limb)", "setting": "[8]", "value": "0.6 ± 0.2"}, {"measurement": "Scores of swelling in knuckle joints (right hind-limb)", "setting": "[8]", "value": "1.0 ± 0.0"}]}
